PubChem BioAssay AID602196 | INSERM – 2012

- Purpose: 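Genes whose knock-down alters cisplatin killing of lung cancer cells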
- Cell system: human A549 lung cancer cells
- Knock-down reagent: siRNA pair against human genes
- Time to read-out: 48 h transfection before cisplatin; time from cisplatin to read-out not stated
- Treatment: cisplatin at a dose killing half of control-siRNA cells; exact dose and duration not given
- Measurement: 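Shift in cisplatin death relative to control siRNA, from -50 (all cells die) to +50 (no cells die); siRNAs harmful on their own scored 0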
- Scale: two-siRNA summed score (-2 to +2): higher = both siRNAs protect from cisplatin killing; -2 means both sensitise; mean protection from cisplatin (shift in death): higher = protection from cisplatin killing
- Hit rule: 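Each siRNA scores 0 if harmful alone by LDH or WST-1, otherwise +1 if it reduces and -1 if it increases cisplatin killing; a gene is active when both siRNAs agree (sum +2 or -2)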
- Meaning of the calls: active = both siRNAs shift cisplatin killing the same way; inactive = no consistent shift, or siRNA harmful alone
This is an unselected part of about 23,000 reagents. In the full data, 455 (2%) got an active call. 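Active includes both protection and sensitisation; some change values fall well beyond the stated -50 to +50 range.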 Unmarked entries are inactive. Not all columns of the deposit are shown. No sequences are given here. Not stated in the record: the amount of reagent.

Target gene	two-siRNA summed score (-2 to +2)	mean protection from cisplatin (shift in death) (%)
SARDH (sarcosine dehydrogenase)	1	17.6
RWDD2A (RWD domain containing 2A)	0	-6
CLK1 (CDC like kinase 1)	0	19.8
GMPS (guanosine monophosphate synthase)	0	0.7
LOC388274	0	6.1
KDM6B (lysine demethylase 6B)	0	-4
PGGHG (protein-glucosylgalactosylhydroxylysine glucosidase)	0	-6.7
CYMP-AS1 (CYMP antisense RNA 1)	0	9.7
TERF2IP (TERF2 interacting protein)	0	0.4
ATP7A (ATPase copper transporting alpha)	0	-3.2
PIK3R6 (phosphoinositide-3-kinase regulatory subunit 6)	0	-3.1
IMPA2 (inositol monophosphatase 2)	0	4.8
KDM1B (lysine demethylase 1B)	0	6.9
RNF167 (ring finger protein 167)	0	-7.8
LOC441186	1	13.9
LOC441744	1	7.1
SOX7 (SRY-box transcription factor 7)	0	-1.1
LOC442695	0	14.5
DPH3 (diphthamide biosynthesis 3)	1	11.6
LINC02112 (long independently transcribed non-coding RNA 2112)	0	0.6
EPS15 (epidermal growth factor receptor pathway substrate 15)	0	1.8
CX3CL1 (C-X3-C motif chemokine ligand 1)	0	2
SEMA6B (semaphorin 6B)	1	27.3
SLC4A7	0	-4.5
ACYP2 (acylphosphatase 2)	0	5.2
SPANXA1	0	19.9
PTPRN2 (protein tyrosine phosphatase receptor type N2)	0	4.4
CYP7B1 (cytochrome P450 family 7 subfamily B member 1)	0	-5.7
FLJ39075	0	8.2
PCNX3 (pecanex 3)	0	7.8
NHLRC2 (NHL repeat containing 2)	0	10.5
MUC21 (mucin 21, cell surface associated)	0	12
DIPK2B (divergent protein kinase domain 2B)	1	13.5
RASSF7 (Ras association domain family member 7)	-1	-3.6
LOC440979	0	0.4
TRMT1 (tRNA methyltransferase 1)	-1	-13.6
RWDD2B (RWD domain containing 2B)	0	6.3
GGPS1 (geranylgeranyl diphosphate synthase 1)	1	7.5
KCNK10 (potassium two pore domain channel subfamily K member 10)	-1	2.9
ZDHHC24 (zDHHC palmitoyltransferase 24)	0	13.3
MTRF1 (mitochondrial translation release factor 1)	0	3.5
ULK2 (unc-51 like autophagy activating kinase 2)	0	-0.8
MORN1 (MORN repeat containing 1)	0	5.1
LOC441998	0	4.9
CUX1 (cut like homeobox 1)	-1	0.5
WNT7B (Wnt family member 7B)	0	-4.5
DUSP8 (dual specificity phosphatase 8)	1	17.2
LOC442519	1	11.6
HEATR9 (HEAT repeat containing 9)	-1	-9.6
TMEM25 (transmembrane protein 25)	0	12
LOC442449	0	7.7
STARD3 (StAR related lipid transfer domain containing 3)	0	-0.7
TBC1D4 (TBC1 domain family member 4)	0	2.8
TTC4 (tetratricopeptide repeat domain 4)	-2 (active)	-17.7
SMC2 (structural maintenance of chromosomes 2)	0	-3.1
DUSP11 (dual specificity phosphatase 11)	0	-0.8
ZACN (zinc activated ion channel)	0	-7.4
